Measurements as given in PMC4574948.
No constants are given. Whether binding was seen depends on the method and setting. Binding seen in cells or lysates may run through a third protein. Some entries that bind do so weakly or less than the wild type.

Amino acid sequences for entries named in this document (tags omitted). Residues count along the entry.
UniProt O14497: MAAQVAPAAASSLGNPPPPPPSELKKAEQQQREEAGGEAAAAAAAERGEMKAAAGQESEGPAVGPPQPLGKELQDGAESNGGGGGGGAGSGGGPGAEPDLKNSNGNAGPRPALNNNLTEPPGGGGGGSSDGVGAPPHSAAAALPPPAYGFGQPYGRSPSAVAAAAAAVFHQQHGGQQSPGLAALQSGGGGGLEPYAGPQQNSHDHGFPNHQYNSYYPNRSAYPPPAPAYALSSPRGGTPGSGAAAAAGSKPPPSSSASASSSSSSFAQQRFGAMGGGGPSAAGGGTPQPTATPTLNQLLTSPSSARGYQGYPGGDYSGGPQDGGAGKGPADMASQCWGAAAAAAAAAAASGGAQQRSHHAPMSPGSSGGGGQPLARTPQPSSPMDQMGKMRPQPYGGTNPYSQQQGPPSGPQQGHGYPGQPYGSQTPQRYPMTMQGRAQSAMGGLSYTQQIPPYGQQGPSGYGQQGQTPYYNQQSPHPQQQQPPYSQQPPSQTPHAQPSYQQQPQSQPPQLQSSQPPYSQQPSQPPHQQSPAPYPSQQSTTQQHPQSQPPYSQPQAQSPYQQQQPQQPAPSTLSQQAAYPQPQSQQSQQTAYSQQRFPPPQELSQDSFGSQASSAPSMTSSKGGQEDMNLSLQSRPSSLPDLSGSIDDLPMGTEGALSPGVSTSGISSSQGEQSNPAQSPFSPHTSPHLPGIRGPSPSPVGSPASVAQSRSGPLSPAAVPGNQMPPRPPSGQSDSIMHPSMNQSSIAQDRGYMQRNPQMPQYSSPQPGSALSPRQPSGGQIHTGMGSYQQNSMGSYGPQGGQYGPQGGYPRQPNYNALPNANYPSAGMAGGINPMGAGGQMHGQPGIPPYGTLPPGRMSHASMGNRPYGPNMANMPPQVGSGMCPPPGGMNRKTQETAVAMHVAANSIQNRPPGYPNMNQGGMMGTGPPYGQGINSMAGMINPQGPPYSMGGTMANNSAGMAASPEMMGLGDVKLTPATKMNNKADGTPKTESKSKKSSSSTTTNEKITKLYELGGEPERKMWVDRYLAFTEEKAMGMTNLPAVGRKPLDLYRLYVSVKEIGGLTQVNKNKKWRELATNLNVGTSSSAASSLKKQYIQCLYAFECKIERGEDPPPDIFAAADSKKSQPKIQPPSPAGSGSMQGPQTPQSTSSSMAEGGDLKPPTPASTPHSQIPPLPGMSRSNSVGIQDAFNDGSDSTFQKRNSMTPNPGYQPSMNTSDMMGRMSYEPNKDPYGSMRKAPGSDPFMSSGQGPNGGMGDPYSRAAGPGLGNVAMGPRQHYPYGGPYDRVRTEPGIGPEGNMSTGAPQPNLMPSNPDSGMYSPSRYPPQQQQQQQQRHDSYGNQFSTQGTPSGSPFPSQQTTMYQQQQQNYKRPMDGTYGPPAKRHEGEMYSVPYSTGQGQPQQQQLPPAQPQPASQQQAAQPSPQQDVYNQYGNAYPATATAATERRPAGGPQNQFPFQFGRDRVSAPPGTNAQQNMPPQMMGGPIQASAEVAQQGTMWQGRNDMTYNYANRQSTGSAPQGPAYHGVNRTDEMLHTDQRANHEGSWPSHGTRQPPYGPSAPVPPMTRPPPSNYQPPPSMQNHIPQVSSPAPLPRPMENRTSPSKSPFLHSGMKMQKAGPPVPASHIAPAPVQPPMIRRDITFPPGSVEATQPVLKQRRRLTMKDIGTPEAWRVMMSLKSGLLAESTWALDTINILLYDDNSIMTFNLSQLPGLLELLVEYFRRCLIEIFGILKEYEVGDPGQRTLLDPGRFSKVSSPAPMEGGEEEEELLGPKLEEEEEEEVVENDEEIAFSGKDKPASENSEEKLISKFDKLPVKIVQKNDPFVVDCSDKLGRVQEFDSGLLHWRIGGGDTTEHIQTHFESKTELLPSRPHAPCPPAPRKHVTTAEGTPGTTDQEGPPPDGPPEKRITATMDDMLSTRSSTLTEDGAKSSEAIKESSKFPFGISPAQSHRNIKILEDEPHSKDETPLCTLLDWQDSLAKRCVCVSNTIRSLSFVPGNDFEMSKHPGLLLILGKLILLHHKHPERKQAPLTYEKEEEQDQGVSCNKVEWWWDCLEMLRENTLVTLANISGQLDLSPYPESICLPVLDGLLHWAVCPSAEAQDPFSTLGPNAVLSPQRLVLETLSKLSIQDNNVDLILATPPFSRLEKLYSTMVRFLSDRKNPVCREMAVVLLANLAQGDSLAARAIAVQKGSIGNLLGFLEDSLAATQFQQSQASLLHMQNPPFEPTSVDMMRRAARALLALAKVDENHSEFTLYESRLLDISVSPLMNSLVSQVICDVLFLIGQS
UniProt P06401, residues 165-933: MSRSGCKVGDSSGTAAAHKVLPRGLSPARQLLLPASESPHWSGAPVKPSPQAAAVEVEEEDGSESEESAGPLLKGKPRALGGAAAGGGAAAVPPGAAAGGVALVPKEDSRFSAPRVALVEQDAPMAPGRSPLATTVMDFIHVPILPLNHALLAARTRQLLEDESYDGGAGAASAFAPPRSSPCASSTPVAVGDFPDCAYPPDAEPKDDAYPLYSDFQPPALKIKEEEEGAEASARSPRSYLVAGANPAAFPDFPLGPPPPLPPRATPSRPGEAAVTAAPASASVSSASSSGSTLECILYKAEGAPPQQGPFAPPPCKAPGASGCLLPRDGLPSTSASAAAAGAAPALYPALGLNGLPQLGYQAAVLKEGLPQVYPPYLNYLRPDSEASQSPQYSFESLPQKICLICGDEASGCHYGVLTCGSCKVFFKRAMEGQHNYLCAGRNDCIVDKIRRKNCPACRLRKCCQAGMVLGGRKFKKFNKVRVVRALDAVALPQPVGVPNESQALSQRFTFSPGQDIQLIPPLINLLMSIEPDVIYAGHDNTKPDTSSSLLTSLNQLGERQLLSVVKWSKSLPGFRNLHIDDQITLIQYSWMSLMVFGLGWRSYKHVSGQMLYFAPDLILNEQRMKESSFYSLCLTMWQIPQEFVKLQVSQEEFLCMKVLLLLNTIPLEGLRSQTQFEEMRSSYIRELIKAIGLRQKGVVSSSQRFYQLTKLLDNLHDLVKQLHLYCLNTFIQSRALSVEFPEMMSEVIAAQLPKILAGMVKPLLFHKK

Target: AT-rich interactive domain 1A protein (ARID1A) (human (endogenous in Ishikawa)) (UniProt O14497)
Test: co-IP; Ishikawa cells transfected with human PR-A or PR-B; lysis buffer 150 mM NaCl, 0.125% Nonidet P-40, 2.5 mM EDTA, 10 mM Tris-HCl pH 7.4; immunoprecipitated with ARID1A antibodies (Abnova) and protein A-agarose overnight at 4°C; western blot with anti-PGR antibody

binding: binds
Substance: human progesterone receptor isoform A (PR-A) (from UniProt P06401-2 1-769)
